Test results reported in publication PMC9774250.
The exact form of at least one protein or probe is not confirmed. For part of these data: Whether high values mean tight binding is not given here for every scale. For part of these data: Tags and fusion partners may be left off the protein sequences shown.

Columns and labels:
[1] = molecular target: apo-YgaV (His-tagged) (UniProt P77295); test: DNase I footprinting; conditions: 1 mM DTT, Mg2+, Ca2+, footprint: 100 nM DNA, 12.5 mM HEPES/NaOH pH 8.0, 5 mM K-acetate, 2.5 mM Mg-acetate, 1 mM CaCl2, 12.5 ug/mL BSA, 0.3 mg/mL heparin, ~22 C, recombinant protein, residues 1-99, protein details: N-terminal His (pColdI), probe letters rebuilt from the primers and the genome, part of a longer molecule
[2] = molecular target: T1, heme-YgaV (His-tagged, hemin-reconstituted) (UniProt P77295); test: EMSA; conditions: heme, 10 mM Na2S (oxidized); EMSA: 50 nM probe, 25 mM Tris-HCl pH 8.0, 100 mM NaCl, 2 mM MgCl2, 6% glycerol, room temperature 30 min; recombinant protein; residues 1-99; protein details: N-terminal His (pColdI); probe letters rebuilt from the primers and the genome; part of a longer molecule
T1 sequence (looked up): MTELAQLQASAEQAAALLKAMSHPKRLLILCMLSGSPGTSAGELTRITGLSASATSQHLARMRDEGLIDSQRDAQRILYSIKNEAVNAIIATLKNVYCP

[3] = molecular target: apo-YgaV (His-tagged) (UniProt P77295); test: EMSA; conditions: EMSA: 50 nM probe, 25 mM Tris-HCl pH 8.0, 100 mM NaCl, 2 mM MgCl2, 6% glycerol, room temperature 30 min, recombinant protein, residues 1-99, protein details: N-terminal His (pColdI), probe letters rebuilt from the primers and the genome, part of a longer molecule

In the case of “CGATTCTCCAGAAACCCATATGTACTCCCTATAAGAAAATTACTCATTGTTTAAAAAGAGATTTTATCTCTTAAGCGTAGTAATTTTAGCGGAGCCTGCCAGTTTCAGCTTACGCTTTTACTCTCATTTACGCTGCTGAGGCTGGTATATGTTGCATTTTTAGTTTAGAGTTTACTTAATTTAGAAAATACTTAAATAAATATGACTGAACTCGCGCAATTACAGGCCAGTGCCGAACAGG (double strand) [ygaVP promoter]”, the binding result [1] is reported as “binds”, the binding signal (fold higher EC50 than DTT-reduced) [2] is reported as 5 and the binding result ([3]; 1 mM DTT (reduced), EC50 only in figure) is reported as “binds”. For the same sequence, the binding signal (fold higher EC50 than DTT-reduced) ([3]; 10 mM Na2S (oxidized)) was 5.

With “TAAATAGTGTGGCTTTTGTGAAAATCACACAGTGATCACAAATTTTAAACAGAGCACAAAATGCTGCCTCGAAATGAGGGCGGGAAAATAAGGTTATCAGCCTTGTTTTCTCCCTCATTACTTGAAGGATATGAAGCTAAAACCCTTTTTTATAAAGCATTTGTCCGAATTCGGACATAATCAAAAAAGCTTAATTAAGATCAATTTGATCTACATCTCTTTAACCAACAATATGTAAGATCTCAACTATCGCATCCGTGGATTAATTCAATTATAACTTCTCTCTAACGCTGTGTATCGTAACGGTAACACTGTAGAGGGGAGCACATTGATG (double strand) [katG promoter]” the binding result [1] was “binds” and the binding signal ([3]; 1 mM DTT (reduced), scale: fold higher YgaV concentration for shift than ygaV promoter) was 20.
